From publication PMC8495200
Results are given in words; binding and its absence hold for the method and conditions named. Binding seen in cells or lysates may run through a third protein. These calls come from enrichment with a bait or labelling near it, and not all partners need be listed. Where a sequence is shown, tags or fusion partners need not be part of it. Each block holds one binder with its values, some of them ahead of it.

Chains of the proteins cited; added tags and fusions are not shown. Lines headed by an entry give the natural chain unless they say otherwise; changes in a name come on top.
UniProt Q54X06: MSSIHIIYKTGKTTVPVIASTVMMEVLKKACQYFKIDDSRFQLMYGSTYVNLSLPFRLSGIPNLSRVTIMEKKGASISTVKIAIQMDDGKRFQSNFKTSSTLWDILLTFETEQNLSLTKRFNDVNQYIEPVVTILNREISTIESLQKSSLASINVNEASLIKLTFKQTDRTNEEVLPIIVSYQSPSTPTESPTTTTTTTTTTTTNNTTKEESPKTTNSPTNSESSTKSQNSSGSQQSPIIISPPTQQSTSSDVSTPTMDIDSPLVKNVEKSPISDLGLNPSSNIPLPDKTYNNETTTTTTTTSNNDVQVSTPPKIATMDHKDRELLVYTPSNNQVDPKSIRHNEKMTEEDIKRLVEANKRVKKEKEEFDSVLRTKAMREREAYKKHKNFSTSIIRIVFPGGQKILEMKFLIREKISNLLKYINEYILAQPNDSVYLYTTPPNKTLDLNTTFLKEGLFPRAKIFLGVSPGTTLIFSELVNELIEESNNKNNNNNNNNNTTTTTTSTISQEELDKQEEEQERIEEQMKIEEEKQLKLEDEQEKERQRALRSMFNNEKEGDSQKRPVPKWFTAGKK

How the values were obtained:
[1] = target: GFP-UBXD9 (N-terminally tagged UBXD9) (D. discoideum); test: affinity purification with mass spectrometry; GFP-trap beads, soluble proteins of AX2 cells expressing UBXD9-GFP or GFP-UBXD9 against AX2/GFP; four replicates, fold change > 1.4 and p < 0.05
[2] = target: UBXD9-GFP (C-terminally tagged UBXD9) (D. discoideum) (UniProt Q54X06); test: as above

B2: Vacuolar protein sorting-associated protein 29 (protein, UniProt Q54IF7 1-183)
chain: MFIIAIGDVHVPHRSYGIPPEFKKLLVPEKIQHILCTGNLVSKEIHDYFKVLTSDVHIVRGDLDENTSYPDTKIVSIGQFKFGLCHGHQIVPWGDRASLAALQRQLDVDVLISGHTHVLEVFESNGKLFVNPGSATGAFSNISNDVIPSFVLMDVQSNNITVYIYKLIDGQVKVEKIDHVKQQ
binding [1]: binds
binding [2]: binds

B4: Phosphoenolpyruvate carboxykinase (enzyme, UniProt Q75JD5 1-562)
chain: MNQAVAESINKSLKSSTADYTPKGYHITELESDSIYLDEHFSGNAKIFHNPAVAVLYEQALAFEHGSAITSTGALVTRSGVKTGRSPKDKRIVKEPSSQDDIWWGPVNIAMDDLSFMINRERAIDYLNTQEKIYVIDGYAGWDPKYRIKVRVICARAYHALFMHNMLIRPANREELRNFGEPDYTIYNAGQFPANRYTKGMSSSSSIAIDFARKEMVILGTQYAGEMKKGILTIMMYLMPKMGVLPLHSSCNQARNNGDTTLFFGLSGTGKTTLSADINRELIGDDEHVWTDTGCFNIEGGCYAKCIDLSREKEPEIFDAIKFGAVLENVVYNEYSRKVDYNDVSITENTRCAYPLEHIPNAKFPAIAGHPKNIIMLTCDAFGILPPVSRLDANQVMYHFIQGYTAKVAGTEVGVTEPTATFSSCYGEPFIVWHPTKYAEMLASQLHKHSARAWLINTGWTGGSHGVGSRIKLAYTRAIIDAIHSGELEKIPTTKMDVFGFQVPNSCPGVPSEILMPINGWADKEKYVSTMHKLAKLFIENFKKFQDKASPELVAAGPILPQ
binding [1]: binds
binding [2]: binds

B5: 60S ribosomal protein L36 (protein, UniProt Q55AQ9 1-105)
chain: MSSAATKPVKRSGIIKGFNKGHAVAKRTVTSTFKKQVVTKRVAAIRDVIREISGFSPYERRVSELLKSGLDKRALKVAKKRLGSIQAGKKKRDDIANINRKASAK
binding [1]: binds
binding [2]: binds

B6: Probable replication factor C subunit 3 (protein, UniProt Q54BN3 1-347)
chain: MLWIDKYKPTSLDKMDYHNDISINLKNMIKSGDFPHLLVYGPSGAGKKTRILAVLQEIYGPNALKLKIDHRTFKHPTSSKNIQITTISSHYHIEINPGEAGSYDRVVIQTIIKEIAQSPPIDSGSLGAFKIVILNEVDKLSKDAQHALRRTMEKYATFCRLILCCDSTAKVIDPIKSRCLGIRVPAPSQEEIEKVLAKVATAEKFDLPSKLAVNVAKQSGGNLRYALMLLESQKAKQYPFQSTELPLLDWENYISQIVKDCFEEQSPARLSIVRGKLYELLGHCIPPELIFKTLLLEIFKKLDHNMKFEIIHWASYYEHRSQIGSKPIFHLEAFIAKFMSVYKKYNQ
binding [1]: binds
binding [2]: binds

B9: Vacuolin-A (protein, UniProt O15706 1-598)
chain: MIEGSGSKTPKRNSDEISVKSLSIHEANTLSSEHEHESGNEELTLSQIVIRSDFANESSERQSKIILDRFNQGIGKNSAFTDSPALGRGLSRVDVSYFVMGHRNQVAELYDPRGQRFSTVLTPDPTVNIKYVGPVSKTAHYFGAYGKHVLNVPAGHYAKAFSKNRPVLYGEGPHVIIDPTFQFDENNGFVNQQEPFIEHSTINILRIPAGKIAKVWIGTQPHILESRRDPYVFVDAQFKLVSPDGAKKAQLFESSSCTFVEHGSIKRIIPHTGEVAITYNNGILTIIPTPKDGKPVIIDSPTHNFEGFISTSLQTCLFPSKETKQQALADNKSALADEINLKIFQTRDSLRVGVVLVVAFKIVDPELAITKLGKEGIINHIENVSFADMGKAIQLSTLQEIMYFNSIKPGQATNDDSVQTIQDRVKSHLARDLFDYGVELSRLQIETMKVLDTEIAKKLAGQSVTSAEFTTKQATLVKEYDIKTTEARLKAETDNIALEQRNKAIISESQAKLSSAQREAESLLITAEAQKKASELQGELYTKYPILAEIELARIKAEALKNATLYITPQDAGAFMNSPLVYFDKMMNANNTIQQKKN
binding [1]: binds
binding [2]: binds

B11: LIM domain-containing protein E (protein, UniProt O60952 1-199)
chain: MSASVKCGACAKTAYPLESVVANNNSYHKGCFKCSTCNSTLNVKTFKSFEGKLYCPVHTPKVSATAVTDSVALKNALNAPKKVAEGLGNAHRGLDEKPNIGLDSMATANALNAPKKVVEGLGNVQKGIGGKPTYAVFGADGQPTGEQQEQQQYTEEQYEQPQEEQQYQEEQQQYQEEEQQYQEEEQQYQEEEQQYEEEQ
binding [1]: binds
binding [2]: binds

Next, values leading:

binding [1]: binds
binding [2]: binds
B1: Probable pyridoxal 5-phosphate synthase subunit pdx1 (enzyme, UniProt Q54J47 1-305)
chain: MENLTENQATNNNSPFRIKSSLAQMLKGGVIMDVVTPEQARIAEEAGACAVMALEKIPADIRHFGGVARMSDPGMIKEIMNAVTIPVMAKVRIGHFVEAQILQEIGVDYIDESEVLTIADNENHIDKSEFKVPFVCGCRNLGEALRRISEGAAMIRTKGEAGTGDVVEAVRHARAVNKEIKKIQNMDPHELYTYAKEIQAPLELVKEVKRLGRLPVVNFAAGGVATPADAAMMMQLGMDGVFVGSGIFKSGDPAKRAKAIVQAVTHFNNPQIVAKVSENLGEAMVGINVDTLKDKENQNWSTKEK

binding [1]: binds
binding [2]: binds
B3: Putative rho GDI 1 (protein, UniProt Q95UQ1 1-197)
chain: MSDNHEEESNVPAYVPGKHVSVDQLKQQDAEDEALKRYKESLLGTGVHAPKDDPRKLVIKEMKIQIEGRPDTIYPLDTKELIKEMKTKPFVLKESCHYKITLTFNIQHDIVSGLKQTNTVYRKGIKVSTEKHMLGSFAPQALAHSVTNPRHGWEEAPSGMLARGSYTAKVVFTDDDNEEHLSVEYAFSIKSDWKSDD

binding [1]: binds
binding [2]: binds
B7: Dynamin-A (protein, UniProt Q94464 1-853)
chain: MDQLIPVINKLQDVFNTLGSDPLDLPQIVVVGSQSSGKSSVLENIVGRDFLPRGSGIVTRRPLILQLTHLPIADDGSQTQEWGEFLHKPNDMFYDFSEIREEIIRDTDRMTGKNKGISAQPINLKIYSPHVVNLTLVDLPGITKVPVGDQPTDIEQQIRRMVMAYIKKQNAIIVAVTPANTDLANSDALQLAKEVDPEGKRTIGVITKLDLMDKGTDAMEVLTGRVIPLTLGFIGVINRSQEDIIAKKSIRESLKSEILYFKNHPIYKSIANRSGTAYLSKTLNKLLMFHIRDTLPDLKVKVSKMLSDVQGELSTYGDPLYDTKNSQGALLLQIITIFSSNFKDAIDGKLTDLSNNELYGGARISYIFNEIYSHCVNNIDPLEGISLNDIRTTMRNATGPRAALFIPEISFELLVKKQVVRLEEPSAQCVEYVYDELQRIVSQLEAKELSRFINLKARVIEVVNNLLQKHKVPTKTMIEHLIKIETAFINTSHPDFVGGEGIFESLYKKQQLQQQNHLQQLQDQYQQQQQQQQQQQQQNGINNNQKGDNGNMNVNQQNMNQQNMNQQNQSTNPFLQQQQQGQNKYPGGPPAQQQPNQQPNQLNKGPQNMPPNQSKPSSIPQNGPNNNNNNNNNNNRQDHQQGSFFSSFFRASPDPSLGQYGGANNSNNSNNPTSPINSSSNSGNNYNTFGGQQSSSSSSQQLQQSSQSQYKTSYNNNNNSSSNNSSYNRYQDDFYGRGDKLNQVPSIIKAPDDLTSKEKFETELIRELLISYFNIVKKNVKDSVPKSIMHFLVNQSKEHIQNELVAALYKEELFDELLEESPQISSKRKSCKAMIEILRKANEIINEIRDFRN

binding [1]: binds
binding [2]: binds
B8: Vacuolar proton translocating ATPase 100 kDa subunit (protein, UniProt Q54E04 1-815)
chain: MSFLRPSIWRSSPMQMVQLFVQIEAAHDTVDELGKLGLIQFLDDNEHVNLFQRNFVNEVKRCDDMEKKLKFFEDQVKKEPKLQKLLPDNMLSVVDDDSQMDELEGRFDELESELKQVNANQETLQRNYNELIQLRHVLTKDSVFFQENPNLIEGEGHEHSARSPLLAEDQHVSEVAKQGVKLGFITGVMNTDKMPQFQRSLWRTTRGNNYVKDARIEEEIIDPQTGEETAKTVFIVFFQGERLQQKIKKICESFGANIYDCPDNSFERSNLLQKVTVRITDLYEVLQRSKDHKRQTLAGIVPRLYSWKKKVLLEKSIYHTMNLFDYDVGRKCLIAKGWTPKDKIEEIQLALRTATTRSGALVPSVLSIIKTEGSPPTHFETNKYTSSFQEIVNAYGIAHYREVNPAVLTIVTFPFLFGVMFGDVGHGALLLLSALGLISLEKKLAGKKLNELIQMPFDGRYVLFLMSLFSIYVGFIYNECFSIPMNIFGSQYNLNSTTGLYTYQHTDRVYPVGVDPLWKGAPNELVYYNSFKMKLSIIFGVVQMSVGICFSLLNYLNQKGPIKIVNILTQFVPQMIFLWSIFGYMSVLIILKWVVPYRSFEVDKVDPPFILPTIIAMFLSPGGTPDVVFFSGQGAVQTALLFLALISIPVMLVIKPLFMKRFHFQEVERKKLGHHEEEHDDEALYTGHHGEEFEMGEVFVHQVIHTIEFVLGAVSNTASYLRLWALSLAHSELSSVFWERILIGQVERGNPFLAFVGFGAWLGASVAVLLLMESLSAFLHALRLHWVEFQNKFYIGDGVRFIPYSATRILSEDDE

binding [1]: binds
binding [2]: binds
B10: Hisactophilin-1 (protein, UniProt P13231 1-118)
chain: MGNRAFKSHHGHFLSAEGEAVKTHHGHHDHHTHFHVENHGGKVALKTHCGKYLSIGDHKQVYLSHHLHGDHSLFHLEHHGGKVSIKGHHHHYISADHHGHVSTKEHHDHDTTFEEIII

binding [1]: binds
binding [2]: binds
B12: Small aggregate formation protein (protein, UniProt P54661 1-283)
chain: MEEIKETVEKKNKEKKYLNDYKIISEGNNIKVLQKKDFKPKFSLVSYKNYEQNFDFENAKIVSTNFAIDRHIKMKNPPDPFVFIKMPSSKLVQSQLKLYYENEGYKDIPVWITPCSAFMRYIKSYPIVGTVTETMEKKKGFTNRFLSTSETKASVSVGFFGCESSMEVTSGYEYEDTVTSEETRSWSQTLNEGSYIVYQNVLVYAYIIYGGSYKPYIDQMNKFNPGLNIKFFREDKCIFFVPINRDDAFTLRYQDNTWDPVEYDVLIDYLGQNQDKWFSGGLP

binding [1]: binds
binding [2]: binds
B13: Bifunctional purine biosynthesis protein (enzyme, UniProt Q86L14 1-542)
chain: MQALLSVYNKSGIVEFSKILSSKGFNLISTGGTAKSLVDNGLKVQQVSDVTEYPEMLDGRVKTLHPKIHGGLLARPELAHHQADLNKYNIKPISIVVVNLYPFVETVSKESTTLEEAIENIDIGGHTLIRASSKNFQNVLIIVDPSDYKWIGERIQSSTDSTNVLSSITLEERKKLALKAFQHGCSYDAAVSQYLSKVELTNATTIQGVKGTDSASVNVEFPQTFLPLYEKKNDLRYGENPHQKAALYQCPGTGGIANAQLLHGPALSYNNILDGDAALKAVREFDRCACVVIKHTNPCGLSVGVNDSEQAEVYKRAFNGDPKSAYGGILGFNRTLTLETATALKSVFYEVIIAPDYTEDALALLSKKEKLRILRIPEAANQIQFTQPDIRTITGGALLQSPNPIIRGDLAEATKNWKVVTENKPTEQQMKDLLFAWRVSKHVKSNAIVLSKDETIVAIGAGQPNRSQSVDICMKVGGDKVKGSVLASDAFFPFADSIDLAHQGNIACIVQPGGSIRDQEVIDAANKYGIPMVFTGNRNFLH
